These are yes or no findings as the source states them, for the method shown. Some entries that bind do so weakly or less than the wild type.
Target: BMP6 (UniProt P22004)
Experiment: similar binding assay (SPR)

Protein sequences, listed by entry. Tags and fused reporters are not part of them. Lines headed by an entry give the natural chain unless they say otherwise; changes in a name come on top. Residues count along the entry.
UniProt P22004, residues 382-513: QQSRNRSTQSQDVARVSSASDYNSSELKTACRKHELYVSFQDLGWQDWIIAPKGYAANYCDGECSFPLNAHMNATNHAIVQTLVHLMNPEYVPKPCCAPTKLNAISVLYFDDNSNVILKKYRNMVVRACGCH
UniProt P27037: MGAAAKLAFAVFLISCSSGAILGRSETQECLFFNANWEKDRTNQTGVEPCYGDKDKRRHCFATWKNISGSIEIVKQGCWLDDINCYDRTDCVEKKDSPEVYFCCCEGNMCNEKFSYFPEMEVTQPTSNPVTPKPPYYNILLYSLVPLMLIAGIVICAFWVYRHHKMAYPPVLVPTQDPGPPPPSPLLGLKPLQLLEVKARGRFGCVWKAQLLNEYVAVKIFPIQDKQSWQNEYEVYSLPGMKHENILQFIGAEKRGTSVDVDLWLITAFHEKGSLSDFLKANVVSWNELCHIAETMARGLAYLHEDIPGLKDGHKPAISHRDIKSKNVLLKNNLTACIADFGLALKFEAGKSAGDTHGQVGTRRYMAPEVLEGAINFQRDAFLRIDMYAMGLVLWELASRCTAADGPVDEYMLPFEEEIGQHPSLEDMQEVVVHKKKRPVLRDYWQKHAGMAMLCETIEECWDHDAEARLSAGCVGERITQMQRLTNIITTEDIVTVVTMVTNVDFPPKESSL

Q: “ActRIIA-mFc (from UniProt P27037 21-135) (Fc fusion)” was tested. Which binding did it give?
A: The binding was “binds”.

From patent US20240252628A1
